The results in this text go back to US20170285043A1.

The chains behind the UniProt entries cited, without tags or fusion partners. Where a name states a change or a piece, a line headed by the entry shows the natural chain unless it says otherwise.
UniProt Q9NXC5: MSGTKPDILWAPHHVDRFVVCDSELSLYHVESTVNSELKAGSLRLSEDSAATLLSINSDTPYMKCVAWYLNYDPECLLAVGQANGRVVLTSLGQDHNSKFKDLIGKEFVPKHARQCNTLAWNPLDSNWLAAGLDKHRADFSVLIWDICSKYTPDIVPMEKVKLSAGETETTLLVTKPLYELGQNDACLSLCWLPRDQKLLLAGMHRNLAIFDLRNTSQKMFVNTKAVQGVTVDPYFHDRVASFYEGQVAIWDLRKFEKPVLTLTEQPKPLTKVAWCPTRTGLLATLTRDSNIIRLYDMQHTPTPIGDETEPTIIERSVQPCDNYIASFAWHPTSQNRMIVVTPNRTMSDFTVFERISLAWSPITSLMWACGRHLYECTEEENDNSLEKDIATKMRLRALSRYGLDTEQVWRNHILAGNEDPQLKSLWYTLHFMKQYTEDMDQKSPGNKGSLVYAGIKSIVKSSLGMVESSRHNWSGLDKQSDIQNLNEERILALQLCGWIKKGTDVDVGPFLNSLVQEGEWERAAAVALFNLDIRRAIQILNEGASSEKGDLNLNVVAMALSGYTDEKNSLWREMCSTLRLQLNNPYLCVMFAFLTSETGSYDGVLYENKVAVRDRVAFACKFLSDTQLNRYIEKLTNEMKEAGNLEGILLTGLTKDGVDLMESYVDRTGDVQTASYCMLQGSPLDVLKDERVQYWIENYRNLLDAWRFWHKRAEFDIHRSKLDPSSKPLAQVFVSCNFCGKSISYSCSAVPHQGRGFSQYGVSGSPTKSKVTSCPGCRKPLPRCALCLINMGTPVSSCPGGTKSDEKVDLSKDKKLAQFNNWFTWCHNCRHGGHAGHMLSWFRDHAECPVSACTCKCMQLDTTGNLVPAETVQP

These are yes or no findings as the source states them, for the method shown. For some assays here: In cells and extracts the contact can be indirect. Some binding calls cover weakened binding; strength is not graded here. For some assays here: Where a sequence is shown, tags or fusion partners need not be part of it.

Assay [1] has as its target GATOR2, recombinant, transiently co-expressed (HA-Mios, HA-WDR59, HA-WDR24, HA-Sec13, HA-Seh1L) (Homo sapiens (Human)) (UniProt Q9NXC5). As to the kind of experiment: anti-FLAG co-immunoprecipitation, transient co-expression in HEK-293T, immunoblot (FIG. 1B).
The target of assay [2] is GATOR2 complex immunopurified through stably expressed FLAG-WDR24 (human) (UniProt Q9NXC5). As to the kind of experiment: anti-FLAG immunoprecipitation of FLAG-WDR24 from HEK-293T, immunoblot (figure not shown). On the technique in general: Immunoblotting shows a protein as a band on a membrane.

B1: FLAG-Sestrin3 (protein, not shown: small tags and cut ends)
chain: MNRGGGSPSAAANYLLCTNCRKVLRKDKRIRVSQPLTRGPSAFIPEKEVVQANTVDERTNFLVEEYSTSGRLDNITQVMSLHTQYLESFLRSQFYMLRMDGPLPLPYRHYIAIMAAARHQCSYLINMHVDEFLKTGGIAEWLNGLEYVPQRLKNLNEINKLLAHRPWLITKEHIQKLVKTGENNWSLPELVHAVVLLAHYHALASFVFGSGINPERDPEISNGFRLISVNNFCVCDLANDNNIENASLSGSNFGIVDSLSELEALMERMKRLQEEREDEEASQEEMSTRFEKEKKESLFVVSGDTFHSFPHSDFEDDMIITSDVSRYIEDPGFGYEDFARRGEEHLPTFRAQDYTWENHGFSLVNRLYSDIGHLLDEKFRMVYNLTYNTMATHEDVDTTMLRRALFNYVHCMFGIRYDDYDYGEVNQLLERSLKVYIKTVTCYPERTTKRMYDSYWRQFKHSEKVHVNLLLMEARMQAELLYALRAITRHLT
In the case of B1, the binding result in assay [1] is “binds”.

B2: endogenous Sestrin3 (protein)
chain: B1 chain
In the case of B2, the binding entry in assay [2] is reported as “binds”.
